Test results reported in publication doi:10.1101/403360.
Results are given in words; binding and its absence hold for the method and conditions named. Binding seen in cells or lysates may run through a third protein. Some entries that bind do so weakly or less than the wild type.

Chains of the proteins cited; added tags and fusions are not shown. Residues count along the entry.
UniProt Q01097, residues 27-1482: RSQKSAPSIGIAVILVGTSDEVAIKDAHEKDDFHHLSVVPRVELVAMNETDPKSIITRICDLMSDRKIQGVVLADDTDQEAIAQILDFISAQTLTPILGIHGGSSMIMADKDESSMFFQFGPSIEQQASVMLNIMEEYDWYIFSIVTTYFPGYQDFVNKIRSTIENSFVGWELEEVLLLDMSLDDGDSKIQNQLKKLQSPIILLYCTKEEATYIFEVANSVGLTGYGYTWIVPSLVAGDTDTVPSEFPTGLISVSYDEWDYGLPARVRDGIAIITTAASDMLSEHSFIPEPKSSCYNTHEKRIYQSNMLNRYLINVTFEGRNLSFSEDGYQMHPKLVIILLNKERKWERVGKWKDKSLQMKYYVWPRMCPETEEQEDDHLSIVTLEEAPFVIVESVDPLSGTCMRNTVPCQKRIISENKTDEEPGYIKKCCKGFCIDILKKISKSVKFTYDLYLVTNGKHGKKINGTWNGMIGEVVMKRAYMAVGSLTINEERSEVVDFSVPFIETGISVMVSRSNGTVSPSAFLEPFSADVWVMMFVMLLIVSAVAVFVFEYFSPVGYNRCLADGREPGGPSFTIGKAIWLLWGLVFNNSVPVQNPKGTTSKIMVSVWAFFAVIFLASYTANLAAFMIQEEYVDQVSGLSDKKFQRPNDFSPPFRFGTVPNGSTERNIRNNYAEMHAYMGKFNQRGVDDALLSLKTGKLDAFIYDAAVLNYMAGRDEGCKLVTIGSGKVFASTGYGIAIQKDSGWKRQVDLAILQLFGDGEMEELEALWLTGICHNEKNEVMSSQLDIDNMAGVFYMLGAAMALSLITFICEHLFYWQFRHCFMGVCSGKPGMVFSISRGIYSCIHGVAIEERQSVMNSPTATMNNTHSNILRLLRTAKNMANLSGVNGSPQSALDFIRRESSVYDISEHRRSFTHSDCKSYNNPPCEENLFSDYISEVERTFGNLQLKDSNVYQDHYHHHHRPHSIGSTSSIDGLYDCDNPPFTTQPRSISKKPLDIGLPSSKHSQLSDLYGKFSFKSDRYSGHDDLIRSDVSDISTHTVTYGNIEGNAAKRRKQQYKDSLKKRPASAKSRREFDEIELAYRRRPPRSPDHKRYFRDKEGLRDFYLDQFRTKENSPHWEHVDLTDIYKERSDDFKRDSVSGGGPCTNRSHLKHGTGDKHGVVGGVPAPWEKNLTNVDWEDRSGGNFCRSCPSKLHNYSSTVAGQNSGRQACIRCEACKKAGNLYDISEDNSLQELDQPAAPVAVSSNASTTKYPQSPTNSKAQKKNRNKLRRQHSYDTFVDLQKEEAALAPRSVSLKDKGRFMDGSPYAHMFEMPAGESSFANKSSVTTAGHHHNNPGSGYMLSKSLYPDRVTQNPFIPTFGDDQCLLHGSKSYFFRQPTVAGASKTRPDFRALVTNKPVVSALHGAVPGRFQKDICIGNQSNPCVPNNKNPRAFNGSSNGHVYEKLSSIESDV

Molecular target: FRMPD2 (mouse (endogenous in hippocampus))
Assay: co-IP

binding | Substance
binds | GluN2A, NMDA receptor subunit (endogenous) (from UniProt P35436 23-1464)
binds | GluN2B, NMDA receptor subunit (endogenous) (from UniProt Q01097 27-1482)
